# Source: the supplement of paper PMC8728848
# Some of the results follow.
# B1: TAL6-6LysM (Trichoderma atroviride) (protein)
# chain: AASKLGVPQPAQRDQVNCQLYAVQPNDNCIDISSKNNITYAQLLSWNPSLSSTCSNLASLNSSSICVSNPKGTFSISSNTVGATDIATTTAPVPSPTLDQTTSRCAKYYQVSDGDDCSHLTAQFAITLKDFIFLNSEVWQNCTNLELGYYYCVEPVGYISTYPGYLPTATTKPFNQTSATSLPYDGDPWARFSSNSSVIPIANGTRVDCYSYVYVKNLTENLFADCWNMASMYEITREELVLWNPSLGNDGSSGSNLSGAEASQVASSIAIPTTAPSSITTNLYTYPCTVAANISYCVALVSSTGALPTNTAPPGPHASGEISNCTAWFAPEAYDTCKSILDIFEMSFANFYKMNPSVGPDCSGLAVGTNYCVSTYPNGEDPNDDWDGDDSIPSISPTGIITPTPTQSGMVSNCNKFYDVHSNDGCSAIASSQHVDLSSLYKWNPAIKTDCSGLQASVYVCIGILTTSMSTTSKLPTTTSKPSTTSKPPTGITTPTPTQSGMVKNCNKFYDVHSGDGCSAIASSQKVNLSSFYLWNPAVKTDCSGLQASVFVCIGTLTTSMSTTTSKLPTTTSKPSTTSKPPTGIITPTPTQNGMVKNCNKFYDVHSGDGCSAIASSQKVNLSSFYLWNPAVKTDCSGLQASVFVCVGTATTTTAAGITTPTPTQSGMVSGCNKFYDVHAGDGCSAIASSQKIALSSLYKWNPAVKTDCSGLQASVYICIGVGNAAAARVTGAAASFLEQKLISEEDLNSAVDHHHHHH
# Columns and labels:
# Test in all cases: glycan array binding signal (z-score within array); higher = stronger binding
# Conditions in all cases: glycan notation: IUPAC condensed, linker removed
# [1] = biological target: Gal(b1-3)GlcNAc(b1-2)Man(a1-3)[Gal(b1-3)GlcNAc(b1-2)Man(a1-6)]Man(b1-4)GlcNAc(b1-4)[Fuc(a1-6)]GlcNAc
# How it was run: (§1)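 Columns mapping to the same glycan were averaged after glycan names were converted to IUPAC-condensed notation. The data come from 3228 arrays in the Consortium for Functional Glycomics database, limited to those with an available protein sequence. Binding is reported as a within-array Z-score averaged across arrays of one protein sequence and across linkers.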
# [2] = biological target: Gal(b1-3)GlcNAc(b1-2)Man(a1-3)[GlcNAc(b1-4)][Gal(b1-3)GlcNAc(b1-2)Man(a1-6)]Man(b1-4)GlcNAc(b1-4)GlcNAc
# How it was run: as §1
# [3] = biological target: Gal(b1-3)GlcNAc(b1-2)[Gal(b1-3)GlcNAc(b1-6)]Man(a1-6)[Gal(b1-3)GlcNAc(b1-2)Man(a1-3)]Man(b1-4)GlcNAc(b1-4)GlcNAc
# How it was run: as §1
# [4] = biological target: Gal(b1-3)GlcNAc(b1-3)Gal(b1-3)GlcNAc
# How it was run: as §1
# [5] = biological target: Gal(b1-3)GlcNAc(b1-3)Gal(b1-4)Glc
# How it was run: as §1
# [6] = biological target: Gal(b1-3)GlcNAc(b1-3)Gal(b1-4)GlcNAc
# How it was run: as §1
# [7] = biological target: Gal(b1-3)GlcNAc(b1-3)Gal(b1-4)GlcNAc(b1-2)Man(a1-3)[Gal(b1-3)GlcNAc(b1-3)Gal(b1-4)GlcNAc(b1-2)Man(a1-6)]Man(b1-4)GlcNAc(b1-4)GlcNAc
# How it was run: as §1
# [8] = biological target: Gal(b1-3)GlcNAc(b1-3)Gal(b1-4)GlcNAc(b1-2)[Gal(b1-3)GlcNAc(b1-3)Gal(b1-4)GlcNAc(b1-6)]Man(a1-6)[Gal(b1-3)GlcNAc(b1-3)Gal(b1-4)GlcNAc(b1-2)Man(a1-3)]Man(b1-4)GlcNAc(b1-4)[Fuc(a1-6)]GlcNAc
# How it was run: as §1
# [9] = biological target: Gal(b1-3)GlcNAc(b1-3)Gal(b1-4)GlcNAc(b1-3)Gal(b1-4)GlcNAc(b1-2)[Gal(b1-3)GlcNAc(b1-3)Gal(b1-4)GlcNAc(b1-3)Gal(b1-4)GlcNAc(b1-6)]Man(a1-6)[Gal(b1-3)GlcNAc(b1-3)Gal(b1-4)GlcNAc(b1-3)Gal(b1-4)GlcNAc(b1-2)Man(a1-3)]Man(b1-4)GlcNAc(b1-4)[Fuc(a1-6)]GlcNAc
# How it was run: as §1
# [10] = biological target: Gal(b1-3)GlcNAc(b1-3)Gal(b1-4)GlcNAc(b1-6)[Gal(b1-3)GlcNAc(b1-3)]Gal(b1-4)Glc
# How it was run: as §1
# [11] = biological target: Gal(b1-3)GlcNAc(b1-3)Gal(b1-4)[Fuc(a1-3)]GlcNAc
# How it was run: as §1
# [12] = biological target: Gal(b1-3)GlcNAc(b1-3)Gal(b1-4)[Fuc(a1-3)]GlcNAc(b1-6)[Gal(b1-3)GlcNAc(b1-3)]Gal(b1-4)Glc
# How it was run: as §1
# [13] = biological target: Gal(b1-3)GlcNAc(b1-3)GalNAc
# How it was run: as §1
# [14] = biological target: Gal(b1-3)GlcNAc(b1-6)Gal(b1-4)GlcNAc
# How it was run: as §1
# [15] = biological target: Gal(b1-3)GlcNAc(b1-6)GalNAc
# How it was run: as §1
# [16] = biological target: Gal(b1-3)GlcNAc(b1-6)[Gal(b1-3)]GalNAc
# How it was run: as §1
# Gal(b1-3)GlcNAc6S = biological target: Gal(b1-3)GlcNAc6S
# How it was run: as §1
# [17] = biological target: Gal(b1-3)[Fuc(a1-4)]GlcNAc
# How it was run: as §1
# [18] = biological target: Gal(b1-3)[Fuc(a1-4)]GlcNAc(b1-2)Man
# How it was run: as §1
# [19] = biological target: Gal(b1-3)[Fuc(a1-4)]GlcNAc(b1-2)Man(a1-3)[Gal(b1-3)[Fuc(a1-4)]GlcNAc(b1-2)Man(a1-6)]Man(b1-4)GlcNAc(b1-4)[Fuc(a1-6)]GlcNAc
# How it was run: as §1
# [20] = biological target: Gal(b1-3)[Fuc(a1-4)]GlcNAc(b1-3)Gal(b1-3)[Fuc(a1-4)]GlcNAc
# How it was run: as §1
# [21] = biological target: Gal(b1-3)[Fuc(a1-4)]GlcNAc(b1-3)Gal(b1-4)[Fuc(a1-3)]GlcNAc
# How it was run: as §1
# [22] = biological target: Gal(b1-3)[Fuc(a1-4)]GlcNAc(b1-6)GalNAc
# How it was run: as §1
# [23] = biological target: Gal(b1-3)[GlcNAc(b1-6)]GalNAc
# How it was run: as §1
# [24] = biological target: Gal(b1-3)[Neu5Ac(a2-6)]GalNAc
# How it was run: as §1
# [25] = biological target: Gal(b1-3)[Neu5Ac(a2-6)]GlcNAc(b1-4)Gal(b1-4)Glc
# How it was run: as §1
# [26] = biological target: Gal(b1-3)[Neu5Ac(b2-6)]GalNAc
# How it was run: as §1
# Gal(b1-4)Gal = biological target: Gal(b1-4)Gal
# How it was run: as §1
# [27] = biological target: Gal(b1-4)GalNAc(a1-3)[Fuc(a1-2)]Gal(b1-4)GlcNAc
# How it was run: as §1
# [28] = biological target: Gal(b1-4)GalNAc(b1-3)[Fuc(a1-2)]Gal(b1-4)GlcNAc
# How it was run: as §1
binder,measurement,setting,value
B1,glycan array binding signal (z-score),[1],-0.231
same,glycan array binding signal (z-score),[2],-0.061
same,glycan array binding signal (z-score),[3],-0.157
same,glycan array binding signal (z-score),[4],1.47
same,glycan array binding signal (z-score),[5],-0.602
same,glycan array binding signal (z-score),[6],-0.571
same,glycan array binding signal (z-score),[7],0.356
same,glycan array binding signal (z-score),[8],-0.913
same,glycan array binding signal (z-score),[9],0.008
same,glycan array binding signal (z-score),[10],-1.31
same,glycan array binding signal (z-score),[11],-0.428
same,glycan array binding signal (z-score),[12],-1.39
same,glycan array binding signal (z-score),[13],-0.729
same,glycan array binding signal (z-score),[14],0.848
same,glycan array binding signal (z-score),[15],-0.12
same,glycan array binding signal (z-score),[16],-1.01
same,glycan array binding signal (z-score),Gal(b1-3)GlcNAc6S,-0.289
same,glycan array binding signal (z-score),[17],0.802
same,glycan array binding signal (z-score),[18],0.149
same,glycan array binding signal (z-score),[19],-0.76
same,glycan array binding signal (z-score),[20],0.447
same,glycan array binding signal (z-score),[21],-1.2
same,glycan array binding signal (z-score),[22],1.02
same,glycan array binding signal (z-score),[23],-0.67
same,glycan array binding signal (z-score),[24],-0.095
same,glycan array binding signal (z-score),[25],-0.503
same,glycan array binding signal (z-score),[26],0.533
same,glycan array binding signal (z-score),Gal(b1-4)Gal,-0.397
same,glycan array binding signal (z-score),[27],0.916
same,glycan array binding signal (z-score),[28],-1.31
